This is an account of results in patent US20150184221.

In data set [1] the test system is R.HaeIII-type activity (Cyanobacterium sp. (first strain)). Briefly: enzyme reaction in vitro. The settings on record: extract, no double band; protein in an extract.
The test system of a further data set is R.AvaII. In words: enzyme reaction in vitro. Conditions: approx 380 bp ROligo; printed sequence is the central primer region; purified recombinant protein; protein details: commercially available.
Another data set concerns R.AvaI. In words: enzyme reaction in vitro. Conditions: approx 380 bp ROligo; printed sequence is the central primer region; purified recombinant protein; protein details: commercially available.
The next data set relates to R.SphI. Briefly: enzyme reaction in vitro. The settings on record: approx 380 bp ROligo; printed sequence is the central primer region; purified recombinant protein; protein details: commercially available.
Data set [2] deals with R.SphI-type activity (Cyanobacterium sp. (first strain)). In words: enzyme reaction in vitro. Conditions: extract, no double band; protein in an extract.
The test system of data set [3] is R.PvuII-type activity (Lyngbya sp. (first strain)). Briefly: enzyme reaction in vitro. Conditions: protein in an extract.
Another data set deals with M.CviPI. Briefly: activity assay. The settings on record: methylation with SAM, 37 C overnight; protects from Lyngbya extract; purified recombinant protein; protein details: commercially available.

For at least one entry, the source does not settle the construct or the ends of the probe. For some assays here: No signal at the amounts used counts as a negative.

“CGGTTACAGTCTGTAACGGTCCCAGTTTTCAGCCACTCCAAACG (double strand) [ROligo.AvaII]”: the results for the “activity on this sequence” value (in data set [1]; in the data set with R.AvaII) were “not active” and “active”, respectively.

“GGTTACAGTCTGTAACCTCGGGCAGTTTTCAGCCACTCCAAACG (double strand) [ROligo.AvaI]”: in the data set with R.AvaI, the “activity on this sequence” value was “active”.

“GGTTACAGTCTGTAACGCATGCCAGTTTTCAGCCACTCCAAACG (double strand) [ROligo.SphI]”: the “activity on this sequence” value in the data set with R.SphI is given as “active”.

In the case of “GGTTACAGTCTGTAACGCATGTCAGTTTTCAGCCACTCCAAACG (double strand) [ROligo.NspI]”, the “activity on this sequence” value in data set [2] is “not active”.

On to “GTTACAGTCTGTAACCAGCTGACAGTTTTCAGCCACTCCAAACG (double strand) [ROligo.PvuII Gm5C-methylated]”, for which, in data set [3] (5mC at GC sites (CAGm5CTG), cleavage blocked by M.CviPI methylation, variant of ROligo.PvuII), the “activity on this sequence” value was “not active”.

On to “GTTACAGTCTGTAACCAGCTGACAGTTTTCAGCCACTCCAAACG (double strand) [ROligo.PvuII]”, for which the “activity on this sequence” value (in the data set on M.CviPI; in data set [3] (Lyngbya extract)) was “active” each time.
